# Values quoted from earlier work as cited in patent publication US20100331927A1, “FEEDBACK-CONTROLLED METHOD FOR DELIVERING PHOTODYNAMIC THERAPY AND RELATED INSTRUMENTATION” (priority 2007, published 2010).
# At least one compound was matched to its structure with a doubt left.
# Experiments:
# [1] = test system: rat bladder tumor model; details: 60s/60s light interval/dark interval
# [2] = test system: subcutaneously transplanted tumors; details: dark interval of 75 minutes; subcutaneously transplanted tumors in rats
structure (smiles),measurement,setting,value
"C=CC1=C(C)c2cc3[nH]c(cc4nc(cc5[nH]c(cc1n2)c(C)c5CCC(=O)O)C(CCC(=O)O)=C4C)c(C)c3C=C [PpIX, protoporphyrin IX]",improvement of phototoxicity by light fractionation,[1],100 fold
same,increase in tumor volume doubling time,[2],3 fold
